This note sets out measurements from PubChem BioAssay AID1487 (National Center for Advancing Translational Sciences (NCATS), 2009).

A word on the AC50: it is the concentration at which the activity in the assay is half-maximal.

This experiment can be described thus: qHTS Assay for Modulators of Lamin A Splicing. The settings on record: HeLa LMNA splicing GFP/RFP minigene ratio, 48 h. In outline: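 Read-out is the ratio of GFP to DsRed2 object intensity, acquired by 488 nm laser-scanning cytometry on HeLa lamin A-EGFP minigene reporter cells. Compound incubation 48 hrs at 37 °C in Opti-MEM with 2% FBS; DMSO 0.5% final.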
(In general: qHTS replaces the single test concentration by a dilution series.)

Setting [1] is: measured here: GFP splicing reporter channel.
Setting [2] is: measured here: RFP viability control channel.

This is one part of the list. Shown are side measurements of this screen, not its main read-out; they come without a call. Most of these compounds were active or inconclusive in the main read-out, so they are no random draw. Words in brackets tell the shape of the fitted curve; partial curves, single points and poor fits give uncertain potencies.

`Cc1ccc(Oc2c(C(N)=O)cc([N+](=O)[O-])cc2[N+](=O)[O-])cc1`: the AC50 runs as follows: under setting [1], 35.5 µM [falling, single point]; under setting [2], 22.4 µM [falling, single point]. Regarding `CCN(C(=O)COC(=O)c1ccccc1Nc1cccc(C)c1C)C1CCS(=O)(=O)C1` (configuration not stated), the AC50 under setting [2] is 25.1 µM [falling, single point]. On the same count and under the same terms, the result for `Cc1ccc2cccc(Oc3ncnc4scc(-c5ccc(Cl)cc5)c34)c2n1` reads 22.4 µM [rising, single point]; that for `O=C(c1ccccc1[N+](=O)[O-])N1CCN(Cc2ccc3c(c2)OCO3)CC1`, 0.0891 µM [rising, full curve]; that for `O=C(/C=C/c1ccccc1Cl)Nn1cnc2ccccc2c1=O`, 0.00891 µM [rising, full curve, poor fit]. For `O=C(CSc1ncccc1-c1nc2ccccc2[nH]1)NCc1ccco1`, the AC50 reads like this: under setting [1], 5.62 µM [falling, single point]; under setting [2], 4.47 µM [falling, partial curve, poor fit]. In the case of `CC1CCc2c(sc3nnn(CC(=O)Nc4ccc(Cl)cc4)c(=O)c23)C1` (configuration not stated), the AC50 under setting [1] is 0.708 µM [rising, full curve].

As for `CCCc1ccc(/C=C2\C(=O)c3ccccc3C(O)=C2C(=O)OCC)cc1`, the AC50 under setting [2] is 14.1 µM [rising, partial curve, poor fit]. Consider `COC(=O)c1sccc1S(=O)(=O)N(CC(=O)NCc1ccc(F)cc1)c1ccc(Cl)cc1`, for which the AC50 was 0.794 µM [rising, full curve, poor fit] under setting [1] and 15.8 µM [rising, partial curve] under setting [2]. On to `CCOc1ccc(OCC)c(NC(=O)Nc2ccc3c(c2)N(C)C(=O)CS3)c1`, for which, under setting [2], the AC50 was 15.8 µM [rising, partial curve, poor fit]. As for `CCCCN(C(=O)CNC(=O)c1cccs1)C(C(=O)NC1CCCC1)c1ccncc1` (configuration not stated), the half-maximal activity concentration (AC50) runs as follows: under setting [1], 31.6 µM [rising, single point]; under setting [2], 31.6 µM [rising, single point]. On to `O=C(CSc1ccsc1[N+](=O)[O-])N1CCN(c2ccccc2)CC1`, for which the AC50 under setting [2] is 12.6 µM [rising, single point]. Turning to `O=C(Nc1ccc(NC(=O)c2cccs2)c(Cl)c1)c1ccco1`, the AC50 was 10 µM [falling, partial curve, poor fit] under setting [1] and 8.91 µM [falling, partial curve] under setting [2]. For the compound `Nc1c(CC(=O)O)cccc1C(=O)c1ccc(Br)cc1`, the AC50 runs as follows: under setting [1], 2.82 µM [falling, partial curve]; under setting [2], 17.8 µM [rising, partial curve, poor fit]. Consider `N#C/C(=C\C1CC2C=CC1C2)c1nc2ccccc2[nH]1` (configuration not stated), for which, under setting [2], the AC50 was 22.4 µM [rising, single point].

For the compound `Cc1ccccc1NC(=S)N=Nc1c(O)n(C)c2ccc(S(=O)(=O)N3CCOCC3)cc12`, the AC50 runs as follows: under setting [1], 7.94 µM [rising, partial curve]; under setting [2], 7.94 µM [rising, partial curve].

Take `COc1ccccc1NC(=O)CSC1=Nc2ccccc2C2=NC(CC(=O)NCc3cccs3)C(=O)N12` (configuration not stated): the concentration at half-maximal activity (AC50) under setting [1] was 0.00398 µM [falling, full curve, poor fit]. As for `CCOc1ccc(NC(=S)NC(=O)/C=C/c2ccc(C)cc2)c([N+](=O)[O-])c1`, the AC50 under setting [1] is 35.5 µM [falling, single point] and the AC50 under setting [2] was 17.8 µM [falling, partial curve].

As to `Cc1ccccc1NC(=O)CSc1nnc(-c2cccs2)o1`, the AC50 under setting [1] was 35.5 µM [falling, partial curve, poor fit]. As for `COc1ccc(CCN(C)C(=O)CSc2ncnc3sccc23)cc1OC`, the concentration at half-maximal activity (AC50) under setting [1] is 17.8 µM [rising, partial curve, poor fit] and the AC50 under setting [2] was 0.0631 µM [rising, full curve, poor fit]. On to `OC(CC1CC12c1ccccc1-c1ncccc12)(c1ccccc1)c1ccccc1` (configuration not stated), for which the AC50 was 35.5 µM [rising, single point] under setting [1] and 35.5 µM [rising, single point] under setting [2]. For the compound `CS(=O)(=O)c1nc(-c2ccccc2)cc(C(F)(F)F)n1`, the AC50 is 5.62 µM [falling, single point] under setting [1] and 3.98 µM [falling, full curve] under setting [2].

As for `CCCc1c(C(=O)Nc2cc(C(C)(C)C)on2)cnn1-c1ccccc1`, under setting [2], the half-maximal activity concentration (AC50) is 0.0891 µM [falling, full curve, poor fit].

Take `C=CCn1c(SCc2nc3sc(C(=O)O)c(C)c3c(=O)[nH]2)nnc1-c1ccc(C(C)(C)C)cc1`: the AC50 under setting [1] was 0.0282 µM [rising, full curve]. Turning to `Cc1cc(F)ccc1NC(=O)Cn1c(=O)ccc2cc(S(=O)(=O)N3CCC(C)CC3)ccc21`, the AC50 runs as follows: under setting [1], 14.1 µM [falling, partial curve]; under setting [2], 22.4 µM [falling, partial curve, poor fit].

For `COC(=O)/C(=C\C(=O)c1ccc([N+](=O)[O-])cc1)Nc1ccc(OC)cc1`, under setting [2], the AC50 is 35.5 µM [falling, single point]. With `CCOc1ccc(NC(=O)N2CC=C(n3c(=O)[nH]c4ccccc43)CC2)cc1`, the AC50 is, setting by setting: under setting [1], 20 µM [falling, partial curve, poor fit]; under setting [2], 1 µM [falling, full curve, poor fit].

In the case of `Cc1oc2c(C)c(O)ccc2c(=O)c1-c1cnn(-c2ccccc2)c1`, the AC50 reads like this: under setting [1], 17.8 µM [falling, single point]; under setting [2], 35.5 µM [falling, single point]. Regarding `O=C(Nc1ccc2c(c1)OCO2)C1CCCN(c2nc3ccccc3s2)C1` (configuration not stated), the AC50 under setting [1] was 4.47 µM [rising, full curve] and the concentration at half-maximal activity (AC50) under setting [2] was 11.2 µM [rising, partial curve].

Consider `O=C(/C=C/c1ccccc1)OCCCN=C1NS(=O)(=O)c2ccccc21`, for which the AC50 was 14.1 µM [falling, single point] under setting [1] and 15.8 µM [falling, single point] under setting [2]. Regarding `O=C(CSc1ncnc2ccccc12)Nc1cc(S(=O)(=O)N2CCCCC2)ccc1Cl`, the AC50 by setting is: under setting [1], 4.47 µM [rising, partial curve]; under setting [2], 17.8 µM [rising, partial curve].

Take `O=S1(=O)C=CC(Nc2cccc(Cl)c2)C1` (configuration not stated): the concentration at half-maximal activity (AC50) under setting [2] was 10 µM [rising, partial curve]. Same read-out and setting: the result for `O=C(N1CCN(c2cccc(Cl)c2)CC1)C1(S(=O)(=O)c2ccc(Cl)cc2)CC1` reads 12.6 µM [rising, single point]. Same read-out and setting: the result for `CCCOc1ccc(Br)cc1CSC(=N)N` reads 11.2 µM [rising, partial curve]. Same read-out and setting: the result for `CCOC(=O)c1cn(Cc2ccc(Cl)cc2Cl)c2cc(C)nn2c1=O` reads 15.8 µM [rising, partial curve, poor fit]. Consider `O=C(CCN1C(=O)C2C3CCC(C3)C2C1=O)Nc1ccc(Br)cc1` (configuration not stated), for which the AC50 under setting [1] was 35.5 µM [rising, single point].

As to `O=C(CSCc1c(Cl)cccc1Cl)Nc1ccccc1-c1ccccc1`, the AC50 under setting [2] is 20 µM [rising, single point]. For `Cc1ccc(S(=O)(=O)Nc2cc(C(F)(F)F)ccc2N2CCOCC2)c(C)c1`, the AC50 under setting [2] is 28.2 µM [rising, single point]. Same read-out and setting: the result for `C=C(C)c1nc(N)nc(N)n1` reads 20 µM [rising, single point]. On the same count and under the same terms, in the case of `O=C(CSc1nc(-c2ccc(Cl)cc2)cs1)Nc1cccc([N+](=O)[O-])c1` it was 6.31 µM [rising, full curve]. For `COCC(C)OC(=O)/C(C#N)=C\c1coc2ccc(C)cc2c1=O` (configuration not stated), the AC50 runs as follows: under setting [1], 1.12 µM [rising, partial curve]; under setting [2], 15.8 µM [rising, partial curve, poor fit]. Consider `Cc1ccc(C(c2nnnn2C2CCCC2)N2CCc3ccccc32)cc1` (configuration not stated), for which the AC50 was 14.1 µM [rising, single point] under setting [1] and 15.8 µM [rising, partial curve] under setting [2]. For `O=C(CN1CCOCC1)Nc1ccccc1Sc1ccc(Cl)cc1`, the AC50 under setting [2] is 35.5 µM [rising, single point]. The same measure, in the same setting: the result for `Cc1nc(SCC(=O)NCC(F)(F)F)c2c(-c3cccs3)csc2n1` reads 11.2 µM [rising, partial curve, poor fit]; that for `O=C(NC(=S)Nc1ccccc1N1CCCC1)c1ccc([N+](=O)[O-])cc1`, 22.4 µM [rising, single point]. `O=C(CN1CCN(S(=O)(=O)c2ccccc2)CC1)Nc1ccc2c(c1)CCC2`: the AC50 was 0.00708 µM [rising, full curve, poor fit] under setting [1] and 0.00447 µM [rising, full curve, poor fit] under setting [2]. For the compound `CCOc1cc(N2CCOCC2)c(OCC)cc1NC(=O)COc1ccccc1[N+](=O)[O-]`, the AC50 under setting [2] is 2.82 µM [falling, full curve, poor fit]. For `Cc1ccc(NC2=NCC(Cc3ccc(Br)cc3)S2)cc1` (configuration not stated), the AC50 was 35.5 µM [falling, single point] under setting [1] and 35.5 µM [falling, single point] under setting [2]. In the case of `COc1ccccc1N1CCN(CCCNC(=O)c2cnn(-c3ccccc3Cl)c2C2CCN(C(=O)OC(C)(C)C)CC2)CC1`, the AC50 under setting [1] is 2.82 µM [falling, full curve, poor fit]. Take `COc1ncc2nc(CCc3ccccc3)c(=O)n(CCc3ccccc3)c2n1`: the AC50 under setting [2] was 14.1 µM [falling, single point]. With `COC(=O)c1ccccc1NC(=O)c1ccc(COc2ccccc2)o1`, the AC50 by setting is: under setting [1], 11.2 µM [rising, single point]; under setting [2], 20 µM [rising, single point].

`CC(C)(C)NC(=O)CON=C1c2ccccc2-c2ccccc21`: the half-maximal activity concentration (AC50) is 15.8 µM [rising, partial curve] under setting [1] and 12.6 µM [rising, partial curve] under setting [2]. Take `CCCN(CCC)C1=CC(=[N+]2CCCC2)CC(C)(C)C1`: the concentration at half-maximal activity (AC50) was 1.58 µM [rising, partial curve] under setting [1] and 3.16 µM [rising, full curve] under setting [2].
